Source: publication PMC4114980

Assays:
[1] = molecular target: T1, Chromator (endogenous, S2 cells) (Drosophila (endogenous in S2 cells)) (UniProt Q86BS3); assay: co-IP; untreated S2 cell lysate; anti-alpha-tubulin antibody or Chromator mAb 12H9 on protein G-Sepharose beads, overnight at 4°C in ip buffer; blots with mAb 6H11 or anti-tubulin antibody
T1 sequence: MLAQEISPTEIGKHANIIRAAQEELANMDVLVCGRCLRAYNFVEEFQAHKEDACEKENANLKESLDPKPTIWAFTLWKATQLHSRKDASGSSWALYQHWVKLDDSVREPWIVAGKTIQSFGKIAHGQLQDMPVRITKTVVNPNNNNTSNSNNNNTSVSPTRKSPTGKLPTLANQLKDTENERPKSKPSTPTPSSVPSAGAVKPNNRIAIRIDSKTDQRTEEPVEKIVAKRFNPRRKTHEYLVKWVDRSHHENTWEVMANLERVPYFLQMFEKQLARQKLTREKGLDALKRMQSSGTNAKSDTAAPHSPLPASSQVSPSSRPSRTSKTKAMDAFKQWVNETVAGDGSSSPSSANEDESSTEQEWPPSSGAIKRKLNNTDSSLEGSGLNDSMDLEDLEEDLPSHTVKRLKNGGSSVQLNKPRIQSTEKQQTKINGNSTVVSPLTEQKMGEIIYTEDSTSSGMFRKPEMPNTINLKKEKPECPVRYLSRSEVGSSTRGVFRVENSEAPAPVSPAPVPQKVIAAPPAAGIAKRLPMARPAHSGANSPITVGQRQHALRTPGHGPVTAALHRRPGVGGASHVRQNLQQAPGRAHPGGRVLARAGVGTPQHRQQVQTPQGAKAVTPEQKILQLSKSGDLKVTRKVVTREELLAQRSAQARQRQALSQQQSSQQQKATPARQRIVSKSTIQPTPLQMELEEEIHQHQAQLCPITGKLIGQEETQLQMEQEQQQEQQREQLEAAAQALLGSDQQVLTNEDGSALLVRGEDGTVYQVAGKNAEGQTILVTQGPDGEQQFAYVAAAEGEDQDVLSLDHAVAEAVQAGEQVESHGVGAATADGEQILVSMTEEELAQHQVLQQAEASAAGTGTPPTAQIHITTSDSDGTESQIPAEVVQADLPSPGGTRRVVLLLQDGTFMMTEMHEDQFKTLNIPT

[2] = molecular target: T2, Chro-FL (1–926), full-length Chromator GST-fusion protein (Drosophila) (UniProt Q86BS3); assay: pull-down; Chro-FL-GST or GST on glutathione-agarose beads, incubated with S2 cell lysate at 4°C overnight; blot with tubulin antibody; colchicine or taxol not stated for this panel (Fig. 1C); only the target purified
T2 sequence: T1 sequence

[3] = molecular target: T2, Chro-FL (1–926), full-length Chromator GST-fusion protein (Drosophila); assay: pull-down; GST fusion proteins or GST on glutathione agarose beads, incubated with S2 cell lysate with 1 mg/ml colchicine (microtubules depolymerized) at 4°C overnight; blot with anti-tubulin antibody; only the target purified
[4] = molecular target: T3, Chro-CTD (329–926), COOH-terminal domain of Chromator, GST-fusion protein (Drosophila) (UniProt Q86BS3); assay: as above
T3 sequence: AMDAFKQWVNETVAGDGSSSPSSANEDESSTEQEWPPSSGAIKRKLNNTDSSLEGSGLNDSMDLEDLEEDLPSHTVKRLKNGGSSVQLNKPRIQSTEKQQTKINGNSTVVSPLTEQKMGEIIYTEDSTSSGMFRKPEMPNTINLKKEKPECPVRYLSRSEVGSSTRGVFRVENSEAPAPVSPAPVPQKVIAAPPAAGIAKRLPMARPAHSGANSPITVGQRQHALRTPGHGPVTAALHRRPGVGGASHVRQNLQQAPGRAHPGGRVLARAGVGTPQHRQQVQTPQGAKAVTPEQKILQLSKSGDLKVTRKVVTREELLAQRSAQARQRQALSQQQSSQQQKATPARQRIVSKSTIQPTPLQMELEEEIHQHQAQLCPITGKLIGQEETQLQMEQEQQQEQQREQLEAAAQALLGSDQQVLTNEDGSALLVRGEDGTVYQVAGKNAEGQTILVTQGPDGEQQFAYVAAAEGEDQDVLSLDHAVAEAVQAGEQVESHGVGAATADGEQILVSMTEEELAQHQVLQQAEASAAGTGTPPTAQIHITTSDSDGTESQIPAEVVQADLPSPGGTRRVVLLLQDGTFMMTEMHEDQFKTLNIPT

[5] = molecular target: T4, Chro-NTD (1–346), NH2-terminal domain of Chromator, GST-fusion protein (Drosophila) (UniProt Q86BS3); assay: as above
T4 sequence: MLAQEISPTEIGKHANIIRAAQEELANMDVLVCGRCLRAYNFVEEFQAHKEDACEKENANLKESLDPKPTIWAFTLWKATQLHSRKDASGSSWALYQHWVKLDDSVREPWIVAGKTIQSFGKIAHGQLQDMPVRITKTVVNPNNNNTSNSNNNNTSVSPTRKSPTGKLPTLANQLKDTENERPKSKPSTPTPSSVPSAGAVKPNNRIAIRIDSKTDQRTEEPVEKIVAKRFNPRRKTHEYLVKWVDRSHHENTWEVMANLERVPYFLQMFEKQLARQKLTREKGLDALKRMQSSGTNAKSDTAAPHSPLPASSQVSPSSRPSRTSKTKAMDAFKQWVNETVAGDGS

[6] = molecular target: T5, Chro-M (329-600), truncated COOH-terminal domain of Chromator, GST-fusion protein (Drosophila) (UniProt Q86BS3); assay: as above
T5 sequence: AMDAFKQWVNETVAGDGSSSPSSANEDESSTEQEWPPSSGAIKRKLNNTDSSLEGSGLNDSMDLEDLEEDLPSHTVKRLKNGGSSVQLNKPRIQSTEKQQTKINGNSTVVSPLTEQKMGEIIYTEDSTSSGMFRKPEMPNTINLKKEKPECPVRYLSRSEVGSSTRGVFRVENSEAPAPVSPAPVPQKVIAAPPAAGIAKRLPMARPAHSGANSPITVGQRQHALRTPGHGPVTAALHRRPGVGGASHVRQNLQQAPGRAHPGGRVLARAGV

[7] = molecular target: purified bovine brain tubulin (bovine); assay: co-sedimentation; microtubules assembled from 16 µg bovine brain tubulin in PEM buffer with 20 µM taxol and 2 mM GTP, incubated with GST fusion proteins at room temperature for 30 min, pelleted at 75,000 rpm for 20 min; pellet and supernatant blotted; both purified

B2: Chro-M (329-600), truncated COOH-terminal domain of Chromator, GST-fusion protein (domain or fragment, UniProt Q86BS3 329-600)
chain: T5 sequence
binding [7]: binds

B3: Chro-CTD (329–926), COOH-terminal domain of Chromator, GST-fusion protein (domain or fragment, UniProt Q86BS3 329-926)
chain: T3 sequence
binding [7]: binds

B4: Chro-421 (601–926), truncated COOH-terminal domain of Chromator, GST-fusion protein (domain or fragment, UniProt Q86BS3 601-926)
chain: GTPQHRQQVQTPQGAKAVTPEQKILQLSKSGDLKVTRKVVTREELLAQRSAQARQRQALSQQQSSQQQKATPARQRIVSKSTIQPTPLQMELEEEIHQHQAQLCPITGKLIGQEETQLQMEQEQQQEQQREQLEAAAQALLGSDQQVLTNEDGSALLVRGEDGTVYQVAGKNAEGQTILVTQGPDGEQQFAYVAAAEGEDQDVLSLDHAVAEAVQAGEQVESHGVGAATADGEQILVSMTEEELAQHQVLQQAEASAAGTGTPPTAQIHITTSDSDGTESQIPAEVVQADLPSPGGTRRVVLLLQDGTFMMTEMHEDQFKTLNIPT
binding [7]: no binding

The next lines start with the values.

binding [1]: binds
binding [2]: binds
binding [3]: binds
binding [4]: binds
binding [5]: no binding
binding [6]: binds
Molecule: tubulin (endogenous, S2 cells) (Drosophila (endogenous in S2 cells)) (complex)

binding [7]: no binding
B1: Chro-NTD (1–346), NH2-terminal domain of Chromator, GST-fusion protein (domain or fragment, UniProt Q86BS3 1-346)
chain: T4 sequence

No constants are given. Whether binding was seen depends on the method and setting. For some of these results: Binding can be weak; no strength is given. For some of these results: Where a sequence is shown, tags or fusion partners need not be part of it. For some of these results: Binding seen in cells or lysates may run through a third protein. Each block holds one molecule with its values, some of them ahead of it.
